# Assay results taken from publication PMC8251345, “Entropic pressure controls the oligomerization of the Vibrio cholerae ParD2 antitoxin” (Acta Crystallographica. Section D, Structural Biology, 2021).
# These are yes or no findings as the source states them, for the method shown. Some results given as binding are weak or reduced against the parent protein; the word gives no strength.
# Target: Vibrio cholerae ParE2 toxin with C-terminal His tag (V. cholerae)
# Test: SEC; […]; 20 mM Tris pH 8.0, 150 mM NaCl, 1 mM TCEP ([…]
binder,measurement,value
"Vibrio cholerae ParD2 antitoxin (natural protein, also called VcParD2) MAKNTSITLGEHFDGFITSQIQSGRYGSASEVIRSALRLLENQETKLQSLRQLLIEGEQSGDADYDLDSFINELDSENIR",binding,binds
